Results published in publication PMC6053364.
No constants are given. Whether binding was seen depends on the method and setting. Binding seen in cells or lysates may run through a third protein. Some results given as binding are weak or reduced against the parent protein; the word gives no strength. For part of these data: Sequences can lack the tags named with a protein.

Sequences of proteins named here, by UniProt entry; tags and fusion partners are left off.
UniProt Q09028: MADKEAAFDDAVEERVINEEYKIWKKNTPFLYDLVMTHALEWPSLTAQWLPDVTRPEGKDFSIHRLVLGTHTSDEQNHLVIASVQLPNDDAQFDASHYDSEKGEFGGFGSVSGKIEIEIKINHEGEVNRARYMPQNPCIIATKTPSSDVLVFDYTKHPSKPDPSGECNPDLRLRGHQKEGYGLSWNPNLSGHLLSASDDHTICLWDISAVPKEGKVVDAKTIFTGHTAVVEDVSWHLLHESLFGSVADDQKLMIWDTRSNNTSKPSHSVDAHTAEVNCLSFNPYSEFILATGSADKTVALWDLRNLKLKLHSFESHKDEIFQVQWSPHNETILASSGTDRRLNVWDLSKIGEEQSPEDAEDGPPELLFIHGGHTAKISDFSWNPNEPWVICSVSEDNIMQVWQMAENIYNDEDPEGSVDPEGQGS
UniProt Q15022: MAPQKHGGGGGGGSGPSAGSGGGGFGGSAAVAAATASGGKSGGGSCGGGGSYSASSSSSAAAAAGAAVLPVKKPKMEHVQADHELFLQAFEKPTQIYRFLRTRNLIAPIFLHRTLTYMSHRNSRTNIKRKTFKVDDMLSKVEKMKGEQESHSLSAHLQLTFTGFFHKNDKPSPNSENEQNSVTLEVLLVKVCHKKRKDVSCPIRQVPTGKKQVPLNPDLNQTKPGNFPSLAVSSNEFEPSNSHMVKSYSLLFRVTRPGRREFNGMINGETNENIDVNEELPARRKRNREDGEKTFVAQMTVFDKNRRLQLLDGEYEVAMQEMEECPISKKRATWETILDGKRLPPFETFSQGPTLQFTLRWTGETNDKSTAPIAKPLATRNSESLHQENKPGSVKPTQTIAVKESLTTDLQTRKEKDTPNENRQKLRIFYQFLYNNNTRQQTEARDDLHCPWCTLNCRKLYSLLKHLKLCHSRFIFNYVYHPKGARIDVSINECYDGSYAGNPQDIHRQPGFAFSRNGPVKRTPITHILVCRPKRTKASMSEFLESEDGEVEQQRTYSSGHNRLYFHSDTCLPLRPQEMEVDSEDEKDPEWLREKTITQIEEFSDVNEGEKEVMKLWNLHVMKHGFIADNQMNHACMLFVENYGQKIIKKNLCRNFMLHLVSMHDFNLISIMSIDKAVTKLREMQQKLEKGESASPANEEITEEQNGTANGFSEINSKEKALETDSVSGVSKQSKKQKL

Columns and labels:
[1] = target: T1, FLAG-tagged ARMC12, wild type (human) (UniProt Q5T9G4); assay: co-IP; SH-SY5Y cells cotransfected with FLAG-tagged ARMC12 (wild type, truncates or mutant) and HA-tagged RBBP4 (wild type, truncates or mutant); FLAG and HA antibodies, western blot
T1 sequence: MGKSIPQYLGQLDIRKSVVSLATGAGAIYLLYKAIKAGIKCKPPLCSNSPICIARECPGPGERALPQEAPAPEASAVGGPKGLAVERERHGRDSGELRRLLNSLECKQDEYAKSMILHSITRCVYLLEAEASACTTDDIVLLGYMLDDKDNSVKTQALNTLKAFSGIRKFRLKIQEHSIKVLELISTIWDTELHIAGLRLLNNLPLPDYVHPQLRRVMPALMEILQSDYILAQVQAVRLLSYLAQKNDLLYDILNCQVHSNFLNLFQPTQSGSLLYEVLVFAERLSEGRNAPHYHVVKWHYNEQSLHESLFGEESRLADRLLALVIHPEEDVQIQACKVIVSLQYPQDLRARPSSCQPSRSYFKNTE

[2] = target: T2, ARMC12 in pBiFC-VN173, wild type (human) (UniProt Q5T9G4); assay: split reporter; BiFC: pBiFC-VN173-ARMC12 and pBiFC-VC155-RBBP4 cotransfected into SH-SY5Y cells for 24 h, grown a further 10 h at 37 C, confocal microscopy
T2 sequence: T1 sequence

[3] = target: T3, ARMC12, stably overexpressed in SH-SY5Y and SK-N-SH cells (human) (UniProt Q5T9G4); assay: co-IP; SH-SY5Y and SK-N-SH cells stably transfected with empty vector (mock) or ARMC12; western blot
T3 sequence: T1 sequence

[4] = target: T4, armadillo repeat containing 12 (ARMC12), endogenous (human (endogenous in BE(2)-C and IMR32)) (UniProt Q5T9G4); assay: co-IP; endogenous proteins in BE(2)-C and IMR32 cells, 10 ug antibody, western blot, IgG as negative control; also cells stably transfected with sh-Scb, sh-ARMC12 #1, sh-RBBP4 #2, sh-EZH2 #1 or sh-SUZ12 #1
T4 sequence: T1 sequence

binding [1]	binding [2]	binding [3]	binding [4]	Substance
binds				HA-tagged RBBP4, wild type (from UniProt Q09028 1-425)
	binds			RBBP4 in pBiFC-VC155, wild type (from UniProt Q09028 1-425)
		binds	binds	retinoblastoma binding protein 4 (RBBP4), endogenous (from UniProt Q09028 1-425)
		binds	binds	suppressor of zeste 12 (SUZ12), endogenous (from UniProt Q15022 1-739)
